Data as given in PubChem BioAssay AID1159584 (Peter MacCallum Cancer Centre, 2016).

Screen: 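Genes that CDH1-null MCF10A cells selectively depend on to survive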 (primary screen)
System: human MCF10A breast epithelial cells, parental and CDH1-null
Reagents: siRNA against human genes
Detection: 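Cell viability by CellTiter-Glo ATP luminescence, each line scaled to the mean of mock wells across plates, then CDH1-null over parental ratio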
Scale: CDH1-null / parental viability ratio: higher = CDH1-null cells survive relatively better than parental; CDH1-null viability vs mock: higher = more viable CDH1-null cells
The deposit covers about 18,000 reagents; below is a part drawn at random. Not all columns of the deposit are shown. The record does not give: the amount of reagent, the time to read-out.

What did the screen give for HS6ST2 (GeneID 90161)?
CDH1-null / parental viability ratio: 1.02; CDH1-null viability vs mock (fraction of mock): 1.19

With GATB (GeneID 5188), what was measured?
CDH1-null / parental viability ratio: 0.69; CDH1-null viability vs mock (fraction of mock): 0.58

What did the screen give for COMP (GeneID 1311)?
CDH1-null / parental viability ratio: 1.28; CDH1-null viability vs mock (fraction of mock): 0.6

How did the screen score STXBP2 (GeneID 6813)?
CDH1-null / parental viability ratio: 1.88; CDH1-null viability vs mock (fraction of mock): 0.62

How did the screen score CUX2 (GeneID 23316)?
CDH1-null / parental viability ratio: 0.89; CDH1-null viability vs mock (fraction of mock): 0.31

For GNPAT (GeneID 8443), how do the results read?
CDH1-null / parental viability ratio: 1.01; CDH1-null viability vs mock (fraction of mock): 1.15

With CHP1 (GeneID 11261), what does the deposit list?
CDH1-null / parental viability ratio: 1.25; CDH1-null viability vs mock (fraction of mock): 0.86

With BCL10 (GeneID 8915), how do the results read?
CDH1-null / parental viability ratio: 1.02; CDH1-null viability vs mock (fraction of mock): 0.98

With FOSL2 (GeneID 2355), how do the results read?
CDH1-null / parental viability ratio: 1.04; CDH1-null viability vs mock (fraction of mock): 0.94

With ZFP1 (GeneID 162239), how do the results read?
CDH1-null / parental viability ratio: 1.19; CDH1-null viability vs mock (fraction of mock): 0.7

For LIPC (GeneID 3990), what does the deposit list?
CDH1-null / parental viability ratio: 0.92; CDH1-null viability vs mock (fraction of mock): 0.77

What did the screen give for ENOX1 (GeneID 55068)?
CDH1-null / parental viability ratio: 1.04; CDH1-null viability vs mock (fraction of mock): 0.88

Which result is listed for KIF5A (GeneID 3798)?
CDH1-null / parental viability ratio: 0.94; CDH1-null viability vs mock (fraction of mock): 0.85

How did the screen score MRGPRF (GeneID 116535)?
CDH1-null / parental viability ratio: 0.82; CDH1-null viability vs mock (fraction of mock): 0.53

With FANCE (GeneID 2178), how do the results read?
CDH1-null / parental viability ratio: 1.15; CDH1-null viability vs mock (fraction of mock): 0.69

How did the screen score SPAM1 (GeneID 6677)?
CDH1-null / parental viability ratio: 0.97; CDH1-null viability vs mock (fraction of mock): 0.83

Which result is listed for KCNQ5 (GeneID 56479)?
CDH1-null / parental viability ratio: 1.17; CDH1-null viability vs mock (fraction of mock): 0.84

What is on record for EMC1 (GeneID 23065)?
CDH1-null / parental viability ratio: 1.03; CDH1-null viability vs mock (fraction of mock): 0.92

Which result is listed for NFIX (GeneID 4784)?
CDH1-null / parental viability ratio: 0.76; CDH1-null viability vs mock (fraction of mock): 0.74

For PRAMEF9 (GeneID 343070), how do the results read?
CDH1-null / parental viability ratio: 0.96; CDH1-null viability vs mock (fraction of mock): 0.81

For PRH1 (GeneID 5554), what was measured?
CDH1-null / parental viability ratio: 0.9; CDH1-null viability vs mock (fraction of mock): 0.66

For DIXDC1 (GeneID 85458), how do the results read?
CDH1-null / parental viability ratio: 1.1; CDH1-null viability vs mock (fraction of mock): 0.95

Sorted by “CDH1-null / parental viability ratio” (lowest first): 2 of the entries above
PRH1 (GeneID 5554) | CDH1-null / parental viability ratio: 0.9; CDH1-null viability vs mock (fraction of mock): 0.66
DIXDC1 (GeneID 85458) | CDH1-null / parental viability ratio: 1.1; CDH1-null viability vs mock (fraction of mock): 0.95

Additional entries follow:
For GRHPR (GeneID 9380), what was measured?
CDH1-null / parental viability ratio: 1.35; CDH1-null viability vs mock (fraction of mock): 0.7

How did the screen score CCNI (GeneID 10983)?
CDH1-null / parental viability ratio: 0.88; CDH1-null viability vs mock (fraction of mock): 0.89

With PPP1R35 (GeneID 221908), what was measured?
CDH1-null / parental viability ratio: 0.96; CDH1-null viability vs mock (fraction of mock): 0.82

Which result is listed for WDR17 (GeneID 116966)?
CDH1-null / parental viability ratio: 0.8; CDH1-null viability vs mock (fraction of mock): 0.72

What is on record for LARP6 (GeneID 55323)?
CDH1-null / parental viability ratio: 1.23; CDH1-null viability vs mock (fraction of mock): 0.7

How did the screen score DIP2C (GeneID 22982)?
CDH1-null / parental viability ratio: 0.94; CDH1-null viability vs mock (fraction of mock): 1.06

Which result is listed for CNNM4 (GeneID 26504)?
CDH1-null / parental viability ratio: 0.99; CDH1-null viability vs mock (fraction of mock): 1.09

For TFAP2D (GeneID 83741), what does the deposit list?
CDH1-null / parental viability ratio: 0.73; CDH1-null viability vs mock (fraction of mock): 0.6

For GARIN3 (GeneID 153745), what was measured?
CDH1-null / parental viability ratio: 1.18; CDH1-null viability vs mock (fraction of mock): 0.87

What is on record for TUB (GeneID 7275)?
CDH1-null / parental viability ratio: 0.86; CDH1-null viability vs mock (fraction of mock): 0.78

With ARK2N (GeneID 147339), what was measured?
CDH1-null / parental viability ratio: 1.1; CDH1-null viability vs mock (fraction of mock): 1.08

For ZNF132 (GeneID 7691), what does the deposit list?
CDH1-null / parental viability ratio: 1.06; CDH1-null viability vs mock (fraction of mock): 0.38

What is on record for TMTC1 (GeneID 83857)?
CDH1-null / parental viability ratio: 0.94; CDH1-null viability vs mock (fraction of mock): 1
